Reference: patent US4939175A, “Use of N,N-dimethyl-1-[1-(4-chlorophenyl)cyclobutyl]-3-methylbutylamine” (priority 1988, dated 1990)

Test system: re-uptake of ^3 H-dopamine
Assay: Re-uptake of 3H-dopamine in vitro (synaptosomes, P2 fraction of whole brain)
Assay type: biochemical, Std: Wistar strain male rat
Details: Experiment II, rat brain synaptosomes, 37° C., 20 minutes
Method: Effect of the test samples on the re-uptake of ^3 H-dopamine in vitro
P2 fraction was prepared from the whole brain of Std: Wistar strain male rat. […] The obtained mixture was incubated at 37° C. for 20 minutes and then subjected to the suction filtration with Whatman GF/B filter paper.
The obtained filter paper was put in a vial containing 10 ml of toluene type scintillator and its radioactivity was measured by means of liquid scintillation counter. The amount of the specific re-uptake of ^3 H-dopamine was obtained by subtracting the amount of re-uptake at 0° C. as blank.

**Q.** How did the IC50 turn out when CNCCCC12CCC(c3ccccc31)c1ccccc12 [Maprotiline, maprotiline] was run?
**A.** The IC50 was 13 µM.
